Measured values published in article PMC5424413.
These are yes or no findings as the source states them, for the method shown. Binding seen in cells or lysates may run through a third protein. Some results given as binding are weak or reduced against the parent protein; the word gives no strength. Sequences can lack the tags named with a protein.

The chains behind the UniProt entries cited, without tags or fusion partners.
UniProt Q15436: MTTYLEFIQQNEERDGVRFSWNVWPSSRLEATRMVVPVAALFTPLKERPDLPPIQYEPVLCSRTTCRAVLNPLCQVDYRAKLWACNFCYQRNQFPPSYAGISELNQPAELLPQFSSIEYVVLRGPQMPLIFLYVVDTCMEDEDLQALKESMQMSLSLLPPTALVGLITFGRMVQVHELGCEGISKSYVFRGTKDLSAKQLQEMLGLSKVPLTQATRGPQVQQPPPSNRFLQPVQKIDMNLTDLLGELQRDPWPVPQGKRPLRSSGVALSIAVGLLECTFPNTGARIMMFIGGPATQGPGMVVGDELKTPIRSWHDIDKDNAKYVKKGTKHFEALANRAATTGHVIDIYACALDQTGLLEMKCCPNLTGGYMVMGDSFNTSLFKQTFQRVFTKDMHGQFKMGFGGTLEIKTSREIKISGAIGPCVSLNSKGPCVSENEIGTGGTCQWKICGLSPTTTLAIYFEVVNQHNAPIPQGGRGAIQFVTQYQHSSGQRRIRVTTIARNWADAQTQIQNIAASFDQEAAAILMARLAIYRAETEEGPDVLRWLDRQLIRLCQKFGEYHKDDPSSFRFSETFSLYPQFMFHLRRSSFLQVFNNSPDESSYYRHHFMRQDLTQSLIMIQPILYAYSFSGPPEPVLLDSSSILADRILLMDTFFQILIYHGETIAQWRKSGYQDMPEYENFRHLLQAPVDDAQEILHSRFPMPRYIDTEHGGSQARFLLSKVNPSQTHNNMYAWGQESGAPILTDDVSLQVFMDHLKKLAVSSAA
UniProt Q8WVT3: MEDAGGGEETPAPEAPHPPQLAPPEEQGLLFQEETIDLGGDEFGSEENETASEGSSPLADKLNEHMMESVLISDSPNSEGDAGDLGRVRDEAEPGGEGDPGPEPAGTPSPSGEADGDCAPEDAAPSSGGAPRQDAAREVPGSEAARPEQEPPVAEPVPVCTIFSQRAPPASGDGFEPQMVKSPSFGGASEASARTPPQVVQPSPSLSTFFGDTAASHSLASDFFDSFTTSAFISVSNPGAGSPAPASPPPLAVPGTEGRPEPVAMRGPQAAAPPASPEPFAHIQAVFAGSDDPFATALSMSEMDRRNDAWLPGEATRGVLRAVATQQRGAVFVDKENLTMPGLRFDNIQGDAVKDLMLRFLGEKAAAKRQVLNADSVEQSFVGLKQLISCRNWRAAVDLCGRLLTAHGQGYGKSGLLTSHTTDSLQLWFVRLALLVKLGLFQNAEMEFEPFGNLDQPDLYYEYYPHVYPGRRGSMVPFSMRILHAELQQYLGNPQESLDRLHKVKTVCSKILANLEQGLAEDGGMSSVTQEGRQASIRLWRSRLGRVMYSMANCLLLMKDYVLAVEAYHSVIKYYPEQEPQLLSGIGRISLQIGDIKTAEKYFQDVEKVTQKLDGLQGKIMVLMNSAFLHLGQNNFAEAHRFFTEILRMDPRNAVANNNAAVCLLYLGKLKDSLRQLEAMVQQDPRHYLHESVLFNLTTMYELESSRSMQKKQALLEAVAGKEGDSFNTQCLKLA

T1: Myc-ULK1 wild type (UniProt O75385)
T1 sequence: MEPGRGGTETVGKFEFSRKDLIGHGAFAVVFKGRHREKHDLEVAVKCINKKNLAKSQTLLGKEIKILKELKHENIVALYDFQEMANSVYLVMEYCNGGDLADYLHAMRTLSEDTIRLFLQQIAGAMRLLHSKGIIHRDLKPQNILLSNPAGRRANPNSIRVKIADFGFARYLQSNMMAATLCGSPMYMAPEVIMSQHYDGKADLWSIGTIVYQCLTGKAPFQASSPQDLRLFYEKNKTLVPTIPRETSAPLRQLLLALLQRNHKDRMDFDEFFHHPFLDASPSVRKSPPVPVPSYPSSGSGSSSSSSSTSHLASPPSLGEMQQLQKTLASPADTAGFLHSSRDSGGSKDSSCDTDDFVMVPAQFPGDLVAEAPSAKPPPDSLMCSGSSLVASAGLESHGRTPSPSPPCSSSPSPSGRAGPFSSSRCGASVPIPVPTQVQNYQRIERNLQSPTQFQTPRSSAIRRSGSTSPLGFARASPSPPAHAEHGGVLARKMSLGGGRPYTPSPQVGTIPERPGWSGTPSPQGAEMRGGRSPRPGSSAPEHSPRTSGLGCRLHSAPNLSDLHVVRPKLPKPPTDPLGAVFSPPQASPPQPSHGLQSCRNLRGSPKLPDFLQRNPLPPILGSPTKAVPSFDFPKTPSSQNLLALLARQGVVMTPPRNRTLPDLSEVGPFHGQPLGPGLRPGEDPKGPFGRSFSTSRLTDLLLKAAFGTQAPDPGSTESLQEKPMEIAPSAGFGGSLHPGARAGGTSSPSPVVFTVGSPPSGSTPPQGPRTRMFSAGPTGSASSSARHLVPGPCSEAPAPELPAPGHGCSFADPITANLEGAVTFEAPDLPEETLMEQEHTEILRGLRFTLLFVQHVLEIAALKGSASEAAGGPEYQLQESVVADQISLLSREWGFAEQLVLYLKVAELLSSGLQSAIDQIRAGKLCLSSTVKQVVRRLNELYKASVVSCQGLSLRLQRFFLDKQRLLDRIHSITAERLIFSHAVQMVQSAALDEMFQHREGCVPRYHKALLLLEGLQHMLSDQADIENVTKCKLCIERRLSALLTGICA

T2: Myc-ULK1 wild type, O75385
T2 chain: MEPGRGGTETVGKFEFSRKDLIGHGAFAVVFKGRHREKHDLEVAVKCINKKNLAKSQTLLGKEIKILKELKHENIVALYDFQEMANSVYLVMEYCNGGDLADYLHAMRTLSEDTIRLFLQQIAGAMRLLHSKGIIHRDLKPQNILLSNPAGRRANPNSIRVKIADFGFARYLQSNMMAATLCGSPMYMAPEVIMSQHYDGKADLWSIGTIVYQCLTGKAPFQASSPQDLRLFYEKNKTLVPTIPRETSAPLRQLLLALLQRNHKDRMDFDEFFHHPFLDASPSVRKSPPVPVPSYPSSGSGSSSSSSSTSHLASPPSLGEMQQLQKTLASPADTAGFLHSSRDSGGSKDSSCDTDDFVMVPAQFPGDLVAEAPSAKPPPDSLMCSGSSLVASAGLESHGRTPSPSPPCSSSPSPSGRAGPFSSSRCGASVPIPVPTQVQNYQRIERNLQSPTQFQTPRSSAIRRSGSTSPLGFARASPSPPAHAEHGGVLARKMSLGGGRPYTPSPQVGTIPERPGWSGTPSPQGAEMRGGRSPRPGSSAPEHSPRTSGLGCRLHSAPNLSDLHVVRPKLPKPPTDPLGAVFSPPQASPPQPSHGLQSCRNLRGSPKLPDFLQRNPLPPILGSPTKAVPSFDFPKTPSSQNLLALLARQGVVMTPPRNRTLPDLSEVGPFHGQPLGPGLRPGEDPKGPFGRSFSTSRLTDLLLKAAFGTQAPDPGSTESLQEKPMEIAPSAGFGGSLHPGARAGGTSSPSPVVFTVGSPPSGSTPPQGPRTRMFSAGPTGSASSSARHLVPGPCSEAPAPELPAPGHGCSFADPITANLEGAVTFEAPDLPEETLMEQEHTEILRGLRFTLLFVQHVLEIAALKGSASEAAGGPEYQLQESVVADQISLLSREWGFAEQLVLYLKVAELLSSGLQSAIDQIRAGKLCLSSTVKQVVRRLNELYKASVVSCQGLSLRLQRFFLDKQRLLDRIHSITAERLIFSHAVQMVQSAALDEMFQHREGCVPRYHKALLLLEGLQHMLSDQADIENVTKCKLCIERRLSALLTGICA


Key:
Myc-ULK1 wild type [1] = target: T1, Myc-ULK1 wild type; assay: co-IP; Myc-ULK1 WT co-transfected pairwise with GFP-tagged COPII components in HEK293T; ULK1 immunoprecipitated by anti-Myc, blot with anti-GFP
Myc-ULK1 wild type [2] = target: T1, Myc-ULK1 wild type; assay: co-IP; Myc-ULK1 and FLAG-FIP200 co-transfected with GFP fusion constructs; Myc-ULK1 immunoprecipitated with anti-c-Myc, GFP fusions detected; cells in complete growth medium or deprived of amino acids; RIPA (150 mM NaCl, 20 mM Tris pH 8.0, 0.01% NP-40), 4 °C, 3 h
[3] = target: T2, Myc-ULK1 wild type, O75385; assay: co-IP; Myc-ULK1 WT co-transfected pairwise with GFP-tagged COPII components in HEK293T; ULK1 immunoprecipitated by anti-Myc, blot with anti-GFP; conditions: remark: other sources report otherwise

Row | binding (Myc-ULK1 wild type [1]) | binding [3] | Molecule | binding (Myc-ULK1 wild type [2])
1 | binds |  | GFP-Sec23A (from UniProt Q15436 1-765) | binds
2 |  |  | GFP-TRAPPC12 (from UniProt Q8WVT3 1-735) | no binding
3 |  | no binding | GFP-Sec31A, O94979 1-1220 (protein) MKLKEVDRTAMQAWSPAQNHPIYLATGTSAQQLDATFSTNASLEIFELDLSDPSLDMKSCATFSSSHRYHKLIWGPYKMDSKGDVSGVLIAGGENGNIILYDPSKIIAGDKEVVIAQNDKHTGPVRALDVNIFQTNLVASGANESEIYIWDLNNFATPMTPGAKTQPPEDISCIAWNRQVQHILASASPSGRATVWDLRKNEPIIKVSDHSNRMHCSGLAWHPDVATQMVLASEDDRLPVIQMWDLRFASSPLRVLENHARGILAIAWSMADPELLLSCGKDAKILCSNPNTGEVLYELPTNTQWCFDIQWCPRNPAVLSAASFDGRISVYSIMGGSTDGLRQKQVDKLSSSFGNLDPFGTGQPLPPLQIPQQTAQHSIVLPLKKPPKWIRRPVGASFSFGGKLVTFENVRMPSHQGAEQQQQQHHVFISQVVTEKEFLSRSDQLQQAVQSQGFINYCQKKIDASQTEFEKNVWSFLKVNFEDDSRGKYLELLGYRKEDLGKKIALALNKVDGANVALKDSDQVAQSDGEESPAAEEQLLGEHIKEEKEESEFLPSSGGTFNISVSGDIDGLITQALLTGNFESAVDLCLHDNRMADAIILAIAGGQELLARTQKKYFAKSQSKITRLITAVVMKNWKEIVESCDLKNWREALAAVLTYAKPDEFSALCDLLGTRLENEGDSLLQTQACLCYICAGNVEKLVACWTKAQDGSHPLSLQDLIEKVVILRKAVQLTQAMDTSTVGVLLAAKMSQYANLLAAQGSIAAALAFLPDNTNQPNIMQLRDRLCRAQGEPVAGHESPKIPYEKQQLPKGRPGPVAGHHQMPRVQTQQYYPHGENPPPPGFIMHGNVNPNAAGQLPTSPGHMHTQVPPYPQPQPYQPAQPYPFGTGGSAMYRPQQPVAPPTSNAYPNTPYISSASSYTGQSQLYAAQHQASSPTSSPATSFPPPPSSGASFQHGGPGAPPSSSAYALPPGTTGTLPAASELPASQRTGPQNGWNDPPALNRVPKKKKMPENFMPPVPITSPIMNPLGDPQSQMLQQQPSAPVPLSSQSSFPQPHLPGGQPFHGVQQPLGQTGMPPSFSKPNIEGAPGAPIGNTFQHVQSLPTKKITKKPIPDEHLILKTTFEDLIQRCLSSATDPQTKRKLDDASKRLEFLYDKLREQTLSPTITSGLHNIARSIETRNYSEGLTMHTHIVSTSNFSETSAFMPVLKVVLTQANKLGV | 
